# In PubChem BioAssay AID2685 (National Center for Advancing Translational Sciences (NCATS), 2010):
# Some of the results follow. Shown are side measurements of this screen, not its main read-out; they come without a call. Most of these compounds were active or inconclusive in the main read-out, so they are no random draw. Words in brackets tell the shape of the fitted curve; partial curves, single points and poor fits give uncertain potencies.
# Assay: qHTS Assay for Lipid Storage Modulators in Drosophila S3 Cells;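 for cell number change: cells counted by Cell Tracker Red CMTPX staining in the red channel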
# Details: BODIPY lipid droplet fluorescence, 18-24 h; for cell number change: measured here: cell count max response, cells fed with added oleic acid
# Summary of the method: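 Laser-scanning cytometry quantifies lipid droplet accumulation (500–530 nm total intensity; droplet/cell object ratio) in oleic acid-fed (400 uM added) Drosophila S3 cells treated with a concentration series. 20 uM Triacsin C defined 100% inhibition.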
# [1] = measured here: cell number channel AC50, cells fed with added oleic acid
# [2] = measured here: lipid fluorescence (Fed channel) AC50, cells fed with added oleic acid
Compound,cell number change,AC50 [1],AC50 [2]
CCOc1ccc(S(=O)(=O)Nc2cccc(C(=O)N3CCN(c4cccc(OC)c4)CC3)c2)cc1,126%,"18.4 µM [rising, single point]",–
CN1CC(=O)N(CC(=O)Nc2ccc3c(c2)CCC3)C1=O,22.6%,–,"6.51 µM [falling, single point]"
O=C(NCc1ccco1)/C(=C/c1ccccc1)NC(=O)c1ccco1,4.78%,–,"0.58 µM [rising, single point]"
C=CCNC(=O)COC(=O)c1cccnc1Nc1ccccc1F,18.8%,"3.26 µM [rising, single point]","6.51 µM [rising, partial curve, poor fit]"
COc1ccc(N(C(=O)c2snc(C(N)=O)c2N)C(C(=O)NCc2ccccc2)c2ccc(O)cc2)cc1OC (stereo not drawn),24.2%,–,"0.13 µM [rising, full curve, poor fit]"
c1ccc(-n2c(-c3ccncc3)nnc2N2CCOCC2)cc1,-9.17%,–,"29.1 µM [falling, single point]"
Cc1ccccc1NC(=O)COC(=O)c1ccc(S(=O)(=O)N2CCCCCC2)cc1,23.3%,–,–
COc1ccc(CCN2C(=O)CC(NC34CC5CC(CC(C5)C3)C4)C2=O)cc1OC (stereo not drawn),-4.35%,–,"6.51 µM [falling, single point]"
CSc1cccc(NC(=O)COC(=O)c2ccccn2)c1,6.75%,"0.58 µM [falling, full curve]","0.651 µM [falling, full curve]"
CC1(C)NC(C)(C)C(O)(C(N)=O)C1=O (stereo not drawn),-17.8%,–,"0.231 µM [falling, full curve, poor fit]"
Clc1cc2nc[nH]c2cc1Cl,35.4%,"18.4 µM [rising, single point]","23.1 µM [rising, single point]"
Fc1ccccc1N1CCN(C2CCN(Cc3c[nH]c4ccccc34)CC2)CC1,83.8%,"18.4 µM [rising, partial curve, poor fit]","18.4 µM [rising, partial curve]"
Cn1c(N2CCC(C(N)=O)CC2)nc2c1c(=O)n(Cc1cccc(Br)c1)c(=O)n2C,1.2%,–,–
Cn1c(=O)[nH]c(=O)c2c1nc(Sc1ncccn1)n2CCCc1ccccc1,-5.03%,–,"6.51 µM [rising, partial curve]"
CC(=O)NC(CC(=O)N(C)Cc1c(F)cccc1Cl)c1ccccc1 (stereo not drawn),3.73%,"0.00461 µM [falling, full curve, poor fit]","1.3 µM [falling, full curve, poor fit]"

# Sorted by molar mass (high to low): some entries from above
Compound,cell number change,AC50 [1],AC50 [2]
COc1ccc(N(C(=O)c2snc(C(N)=O)c2N)C(C(=O)NCc2ccccc2)c2ccc(O)cc2)cc1OC (stereo not drawn),24.2%,–,"0.13 µM [rising, full curve, poor fit]"
CSc1cccc(NC(=O)COC(=O)c2ccccn2)c1,6.75%,"0.58 µM [falling, full curve]","0.651 µM [falling, full curve]"
CC1(C)NC(C)(C)C(O)(C(N)=O)C1=O (stereo not drawn),-17.8%,–,"0.231 µM [falling, full curve, poor fit]"
